Experimental data from patent publication US20220315632A1, “COMBINATION OF DIETARY PEPTIDES” (DIET4LIFE APS, priority 2019, published 2022).
Like-named read-outs stand apart in the source and are kept apart here. For some of these results: Part of at least one peptide drawing is inferred or uncertain, most often the ends. For some of these results: For at least one compound, name, drawing or mass did not settle the structure. Ends that are not written are not given here.

Amino acid sequences for entries named in this document (tags omitted).
UniProt O88319, whole entry: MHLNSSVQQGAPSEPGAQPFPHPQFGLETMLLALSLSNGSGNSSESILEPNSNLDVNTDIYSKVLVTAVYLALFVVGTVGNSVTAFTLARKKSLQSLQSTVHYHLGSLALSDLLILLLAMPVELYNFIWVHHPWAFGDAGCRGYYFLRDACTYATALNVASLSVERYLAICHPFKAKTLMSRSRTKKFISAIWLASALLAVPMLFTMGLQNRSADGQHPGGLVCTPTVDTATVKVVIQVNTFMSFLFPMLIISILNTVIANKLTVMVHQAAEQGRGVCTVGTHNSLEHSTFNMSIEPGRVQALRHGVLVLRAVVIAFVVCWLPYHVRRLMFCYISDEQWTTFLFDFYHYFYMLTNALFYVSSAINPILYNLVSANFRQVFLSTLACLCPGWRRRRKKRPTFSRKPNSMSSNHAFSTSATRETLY

Legend:
[1] = system: mice; format: in vivo, mouse; conditions: FIG. 17
Protocol: Liraglutide reached its maximum inhibition of gastric emptying at doses higher than 3 mg/kg retaining approximately 30% of the phenol red marker solution in the stomach. […] A combination test was designed in which DC7-2 was given at EC50 (3 mg/kg) together with different doses of liraglutide (same as used in dose-response test) (FIG. 17 B). […] This was further supported by the different maximum values observed for liraglutide and DC7-2 alone, respectively.

[2] = system: mice; experiment: Plasma insulin after oral glucose load; format: in vivo, mouse; conditions: FIG. 21; for Insulin levels in plasma: same samples as plasma glucose
[3] = system: Swiss-Webster females; experiment: Chronic feed intake, 3-week daily administration; format: in vivo, mouse; conditions: for accumulative feed intake after repeated daily administration: FIG. 18, liraglutide 3 μg/mouse s.c., DC7-2 1 mg/mouse i.p., sitagliptin 0.025 mg/mouse; for feed intake after seven days of daily dosing in comparison to vehicle / feed intake throughout the experiment (3 weeks): liraglutide 100 μg/kg
Source text: FIG. 18. […] Mice had free access to water and feed in this 3-week study (n=14-18 per group). Significance (P<0.05) is shown as * compared to the corresponding vehicle control.
The effect of DC7-2 alone or in combination with liraglutide on feed intake and body weight was investigated in outbred Swiss-Webster females.

[4] = system: mice; experiment: Oral glucose load, plasma glucose, o/n fasting; format: in vivo, mouse; conditions: DC7-2 1 mg i.p.
[5] = system: mice; experiment: Oral glucose tolerance test, blood glucose, 4 h fasting; format: in vivo, mouse
[6] = system: Swiss Webster male mice; experiment: Acute feed intake in mice; format: in vivo, mouse
[7] = Body weight in 3-week chronic study; format: in vivo, mouse; conditions: 3-week daily dosing
[8] = target: murine intestinal cells (Mus musculus, UniProt O88319); experiment: Ca2+ flux / calcium response assay (cell signaling activity) in murine intestinal cells; format: cell-based; conditions: FIG. 2; mIC and hIC not distinguished
[9] = Liraglutide 4 ug per mouse s.c. at t=−40 min
[10] = 1 mg of DC7-2 i.p. 20 min prior to oral glucose challenge

CCCCCCCCCCCCCCCC(=O)N[C@@H](CCC(=O)NCCCC[C@H](NC(=O)[C@H](C)NC(=O)[C@H](C)NC(=O)[C@H](CCC(N)=O)NC(=O)CNC(=O)[C@H](CCC(=O)O)NC(=O)[C@H](CC(C)C)NC(=O)[C@H](Cc1ccc(O)cc1)NC(=O)[C@H](CO)NC(=O)[C@H](CO)NC(=O)[C@@H](NC(=O)[C@H](CC(=O)O)NC(=O)[C@H](CO)NC(=O)[C@@H](NC(=O)[C@H](Cc1ccccc1)NC(=O)[C@@H](NC(=O)CNC(=O)[C@H](CCC(=O)O)NC(=O)[C@H](C)NC(=O)[C@@H](N)Cc1cnc[nH]1)[C@@H](C)O)[C@@H](C)O)C(C)C)C(=O)N[C@@H](CCC(=O)O)C(=O)N[C@@H](Cc1ccccc1)C(=O)N[C@H](C(=O)N[C@@H](C)C(=O)N[C@@H](Cc1c[nH]c2ccccc12)C(=O)N[C@@H](CC(C)C)C(=O)N[C@H](C(=O)N[C@@H](CCCNC(=N)N)C(=O)NCC(=O)N[C@@H](CCCNC(=N)N)C(=O)NCC(=O)O)C(C)C)[C@@H](C)CC)C(=O)O [liraglutide, reference compound]
effect on gastric emptying (words) [1]: potently inhibited gastric emptying rates in a dose-dependent manner | effect on gastric emptying (words) ([1]; listed as Liraglutide): dose-dependently delayed gastric emptying | Insulin levels in plasma [2]: increased | accumulative feed intake after repeated daily administration [3]: reduces feed intake | feed intake after seven days of daily dosing in comparison to vehicle ([3]; DC7-2 30 mg/kg): significantly reduced feed intake | feed intake throughout the experiment (3 weeks) ([3]; DC7-2 30 mg/kg): lasted throughout the experiment (3 weeks) | blood sugar excursion / profile [4, 9]: reduced the blood sugar excursion

ASDKPYIL [Peptide ID 36036, A SDKPYIL]
timing of insulin response [2]: causes a delay in insulin response | Insulin levels in plasma [2]: no significant effect on peak level or AUC | Blood glucose immediately prior to oral glucose challenge ([5]; 1 mg of DC7-2 i.p. 20 min prior): significantly reduced | blood glucose AUC [5, 10]: significantly lower | blood glucose peak [5, 10]: significantly lower | acute feed intake ([6]; 30 mg/kg corresponding to 1 mg/mouse): marked reduction in feed intake | Accumulated feed intake compared with control ([6]; 6 h during dark cycle, four experiments): 64%+/−5% | feed intake compared to vehicle in week 3 ([3]; DC7-2 30 mg/kg): increased feed intake compared to vehicle | accumulative feed intake after repeated daily administration [3]: reduces feed intake | feed intake after seven days of daily dosing in comparison to vehicle ([3]; DC7-2 30 mg/kg): significantly reduced feed intake | feed intake throughout the experiment (3 weeks) ([3]; DC7-2 30 mg/kg): no effect on feed intake was evident after week 1 | glucose appearance in the plasma [4]: delays glucose appearance in the plasma | peak level of plasma glucose [4, 9]: reduces peak levels comparable to that observed for Liraglutide alone | body weight [7]: no effect was observed

KPYIL [Peptide ID 36004, K PYIL]
biologic activity of truncated ASDKPYIL sequences [8]: minimal sequence with significant biologic activity
